Source: article PMC10497535
These are yes or no findings as the source states them, for the method shown. In cells and extracts the contact can be indirect. Sequences can lack the tags named with a protein.

Molecular target: EGFP-tagged syntaxin-4 (human) (UniProt Q12846)
Experiment: FRET or BRET; FLIM-FRET in MCF-7 cells co-transfected with pEGFP-C1-Qa-SNARE (donor) and pmCherry-C1 empty vector or pmCherry-C1-SNARE (acceptor); lifetime of EGFP read by TCSPC

binding: no binding
B1: mCherry-tagged Sec20 (protein, UniProt Q12981 1-228)
chain: MAAPQDVHVRICNQEIVKFDLEVKALIQDIRDCSGPLSALTELNTKVKEKFQQLRHRIQDLEQLAKEQDKESEKQLLLQEVENHKKQMLSNQASWRKANLTCKIAIDNLEKAELLQGGDLLRQRKTTKESLAQTSSTITESLMGISRMMAQQVQQSEEAMQSLVTSSRTILDANEEFKSMSGTIQLGRKLITKYNRRELTDKLLIFLALALFLATVLYIVKKRLFPFL
